Measurements: PMC4081104
These are yes or no findings as the source states them, for the method shown. Binding seen in cells or lysates may run through a third protein. Some binding calls cover weakened binding; strength is not graded here.

Protein sequences, listed by entry. Tags and fused reporters are not part of them. Lines headed by an entry give the natural chain unless they say otherwise; changes in a name come on top. Residues count along the entry.
UniProt Q12834: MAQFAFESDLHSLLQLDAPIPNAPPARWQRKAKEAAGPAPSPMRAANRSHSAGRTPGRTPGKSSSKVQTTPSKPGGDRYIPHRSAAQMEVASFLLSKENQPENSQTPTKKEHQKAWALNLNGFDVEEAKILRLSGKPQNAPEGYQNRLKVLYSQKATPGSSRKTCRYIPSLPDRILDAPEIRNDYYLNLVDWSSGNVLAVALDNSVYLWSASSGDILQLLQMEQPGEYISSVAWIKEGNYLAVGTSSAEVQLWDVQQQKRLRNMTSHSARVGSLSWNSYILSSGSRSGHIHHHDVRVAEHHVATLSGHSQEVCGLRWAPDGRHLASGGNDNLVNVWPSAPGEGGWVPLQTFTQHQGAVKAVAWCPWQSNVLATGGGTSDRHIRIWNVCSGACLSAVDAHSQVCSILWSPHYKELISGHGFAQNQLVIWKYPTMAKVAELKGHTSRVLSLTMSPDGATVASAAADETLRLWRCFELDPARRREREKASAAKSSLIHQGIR
UniProt O95793: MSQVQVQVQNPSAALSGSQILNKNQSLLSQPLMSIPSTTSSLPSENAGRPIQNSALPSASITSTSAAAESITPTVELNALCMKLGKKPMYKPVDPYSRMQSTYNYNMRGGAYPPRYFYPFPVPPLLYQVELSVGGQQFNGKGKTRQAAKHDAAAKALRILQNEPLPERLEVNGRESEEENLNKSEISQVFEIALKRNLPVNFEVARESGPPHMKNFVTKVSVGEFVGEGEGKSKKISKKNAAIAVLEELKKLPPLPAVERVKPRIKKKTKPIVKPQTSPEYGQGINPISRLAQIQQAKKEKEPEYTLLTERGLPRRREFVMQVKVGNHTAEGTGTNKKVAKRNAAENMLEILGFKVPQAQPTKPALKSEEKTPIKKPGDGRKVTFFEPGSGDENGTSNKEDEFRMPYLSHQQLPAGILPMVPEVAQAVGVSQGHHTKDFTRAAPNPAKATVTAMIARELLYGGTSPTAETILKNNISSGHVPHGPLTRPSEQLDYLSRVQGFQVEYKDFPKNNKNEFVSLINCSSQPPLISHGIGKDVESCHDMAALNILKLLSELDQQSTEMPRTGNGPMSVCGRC
Stau1^55-FLAG: residues 82-577 of O95793
Stau1^Δ2-FLAG: residues 170-577 of O95793
UniProt Q9UM11: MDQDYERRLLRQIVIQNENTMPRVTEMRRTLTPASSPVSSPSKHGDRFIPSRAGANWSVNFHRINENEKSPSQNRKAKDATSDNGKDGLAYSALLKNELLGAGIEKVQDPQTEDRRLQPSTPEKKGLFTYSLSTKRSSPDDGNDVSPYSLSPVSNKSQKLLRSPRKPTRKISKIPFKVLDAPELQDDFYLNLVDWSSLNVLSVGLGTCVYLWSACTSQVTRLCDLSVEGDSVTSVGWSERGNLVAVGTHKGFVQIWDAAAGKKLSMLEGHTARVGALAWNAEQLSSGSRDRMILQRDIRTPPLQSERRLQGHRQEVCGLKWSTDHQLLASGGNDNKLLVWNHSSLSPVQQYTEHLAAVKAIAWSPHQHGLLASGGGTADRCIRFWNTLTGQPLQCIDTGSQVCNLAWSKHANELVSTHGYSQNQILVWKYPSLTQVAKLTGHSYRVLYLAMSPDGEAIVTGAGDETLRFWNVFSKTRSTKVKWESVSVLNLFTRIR

How the values were obtained:
FLAG-Cdc20 [1] = biological target: FLAG-Cdc20 (UniProt Q12834); assay: co-IP; HEK293T cells transfected with FLAG-Cdh1, FLAG-Cdc20 or FLAG-YFP; FLAG-tagged proteins immunoprecipitated with anti-FLAG M2 affinity gel from cleared lysates (50 mM Tris-Cl pH 7.4, 150 mM NaCl, 2 mM MgCl2, 1% Triton X-100), eluted with FLAG peptide; co-purified endogenous Stau1 detected with anti-Stau1 antibody by western blotting
Stau1^55-FLAG = Stau1^55-FLAG (UniProt O95793); assay: co-IP; HEK293T cells co-transfected with HA-Cdh1 or HA-Cdc20 and a FLAG-tagged protein; FLAG-tagged proteins immunoprecipitated with anti-FLAG antibody, co-purified proteins detected with anti-HA antibody by western blotting
Stau1^Δ2-FLAG = Stau1^Δ2-FLAG (UniProt O95793); assay: as above
FLAG-Cdc20 [2] = biological target: FLAG-Cdc20 (UniProt Q12834); assay: as above

binding (FLAG-Cdc20 [1])	binding (Stau1^55-FLAG)	binding (Stau1^Δ2-FLAG)	binding (FLAG-Cdc20 [2])	Substance
binds	–	–	–	Staufen1, 55 kDa isoform (Stau1^55), endogenous (from UniProt O95793-2 1-496)
–	binds	no binding	–	HA-Cdc20 (from UniProt Q12834 1-499)
–	–	no binding	binds	HA-Cdh1 (from UniProt Q9UM11 1-496)
